# Data as given in PubChem BioAssay AID1159578 (Peter MacCallum Cancer Centre, 2015)
# Assay: 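siRNA pools altering how lymphatic endothelial cells close a scratch wound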 (primary screen)
# Cell system: human lymphatic endothelial cells
# Reagents: siRNA pool against human genes, 40 nM
# Timing: 48 h after transfection
# Read-out: 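High-content imaging of dye-stained cells in a scratch assay measures filled wound area and nuclei per well; duplicate means given as ratio to mock and robust z-score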
# Scale: migration robust z-score: higher = faster migration into the scratch; migration relative to mock: higher = more scratch area covered than mock; nuclei per well: higher = more cells in the well
# Active means: 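Pools averaging fewer than 3300 nuclei are never called; remaining pools count as changed when migration robust z lies outside -2 to 2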
# Calls: active = migration changed; inactive = no migration change, or too few cells
# The deposit covers about 18,000 reagents; below is a part drawn at random. Over the whole deposit, about 1,030 (5.7%) are marked active. 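Inactive calls also include pools with fewer than 3300 nuclei, whose migration was not assessed.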 The raw values are shown without normalisation. Reagent sequences are not shown.
gene,migration robust z-score,migration class with cell-count check,migration relative to mock,"nuclei per well, duplicate mean",outcome
NDUFA1,-2,under 3300 nuclei; migration not judged,0.42,3153,inactive
DSTYK,-2.05,migration z below -2; enough cells,0.41,5460,active
PAK3,-0.42,migration z between -2 and 2; enough cells,0.72,5358,inactive
SYT5,-1.01,migration z between -2 and 2; enough cells,0.62,5802,inactive
RPL24,0.13,migration z between -2 and 2; enough cells,0.92,4872,inactive
SEMA3F,0.64,migration z between -2 and 2; enough cells,1.05,6878,inactive
RASGEF1A,1.25,migration z between -2 and 2; enough cells,1.21,6112,inactive
TCEAL9,-0.06,migration z between -2 and 2; enough cells,0.87,6378,inactive
FBXO30,-0.68,migration z between -2 and 2; enough cells,0.68,5417,inactive
UNC13C,-0.17,migration z between -2 and 2; enough cells,0.84,4953,inactive
COPS9,-0.58,migration z between -2 and 2; enough cells,0.74,5928,inactive
GRPEL2,-0.55,migration z between -2 and 2; enough cells,0.74,6412,inactive
RWDD2B,-1.7,migration z between -2 and 2; enough cells,0.44,6408,inactive
EPB41L4A,1.4,migration z between -2 and 2; enough cells,1.25,5442,inactive
ZNF571,-0.97,migration z between -2 and 2; enough cells,0.64,6626,inactive
KLHDC8B,-0.2,migration z between -2 and 2; enough cells,0.84,3901,inactive
LAIR2,0.68,migration z between -2 and 2; enough cells,1.06,5010,inactive
VEGFD,-0.86,migration z between -2 and 2; enough cells,0.64,5202,inactive
MXD1,-1.77,migration z between -2 and 2; enough cells,0.46,5732,inactive
OR4F4,0.84,migration z between -2 and 2; enough cells,1.1,7234,inactive
ZNF419,0.92,migration z between -2 and 2; enough cells,1.12,6234,inactive
SLC5A3,1.58,migration z between -2 and 2; enough cells,1.11,5552,inactive
EML2,0.3,migration z between -2 and 2; enough cells,0.97,6362,inactive
GIMAP8,-2.92,migration z below -2; enough cells,0.13,6524,active
FXR2,-0.2,migration z between -2 and 2; enough cells,0.84,4858,inactive
NPB,0.26,migration z between -2 and 2; enough cells,0.96,6757,inactive
GIPC1,1.06,migration z between -2 and 2; enough cells,1.17,6470,inactive
BTNL9,0.61,migration z between -2 and 2; enough cells,1.04,6136,inactive
NUDT3,0.21,migration z between -2 and 2; enough cells,0.84,6101,inactive
NCCRP1,-2.15,migration z below -2; enough cells,0.39,5118,active
SIRT6,0.16,migration z between -2 and 2; enough cells,0.84,4914,inactive
IGSF6,0.98,migration z between -2 and 2; enough cells,1.14,5799,inactive
EVC2,-0.04,migration z between -2 and 2; enough cells,0.88,5098,inactive
CMC2,3.78,migration z above 2; enough cells,1.87,5319,active
CCDC112,1.5,migration z between -2 and 2; enough cells,1.27,5344,inactive
SPAG9,-1.09,migration z between -2 and 2; enough cells,0.6,5606,inactive
SLCO1B3,0.47,migration z between -2 and 2; enough cells,0.9,6210,inactive
PLK3,0.31,migration z between -2 and 2; enough cells,0.86,4824,inactive
HESX1,-0.24,migration z between -2 and 2; enough cells,0.76,4119,inactive
